# Reference: PubChem BioAssay AID2685 (National Center for Advancing Translational Sciences (NCATS), 2010)
# This is one part of the list. Shown are side measurements of this screen, not its main read-out; they come without a call. The list favours compounds with an active or inconclusive main result. Potencies come from curve fits of mixed quality, noted in brackets.
# Assay: qHTS Assay for Lipid Storage Modulators in Drosophila S3 Cells;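 as to cell number change: cells counted by Cell Tracker Red CMTPX staining in the red channel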
# Details: BODIPY lipid droplet fluorescence, 18-24 h; for cell number change: measured here: cell count max response, cells fed with added oleic acid
# How it was run: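 Drosophila S3 cells loaded with oleic acid (400 uM, as added) and compounds at several concentrations; lipid droplets imaged by 488-nm laser-scanning cytometry, 500–530 nm intensity and object ratio to cell channel. Percent activity normalized to 20 uM Triacsin C.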
# [1] = measured here: lipid fluorescence (Fed channel) AC50, cells fed with added oleic acid
# [2] = measured here: cell number channel AC50, cells fed with added oleic acid
Structure (SMILES),cell number change [%],AC50 [1],AC50 [2]
Cc1ccc(NC(=O)Nc2ccccc2F)cc1S(=O)(=O)N1CCOCC1,23.1,"23.1 µM [rising, single point]",
O=C(COc1cc(F)ccc1[N+](=O)[O-])N1N=C(c2cccs2)CC1c1ccco1 (stereo not drawn),-2.98,"6.51 µM [rising, partial curve, poor fit]",
CC(C)c1nnc(NC(=O)C2c3ccccc3Oc3ccccc32)s1,15.4,"29.1 µM [rising, single point]",
COCC(=O)OCC(=O)c1cc(C)n(-c2ccc(Br)cc2)c1C,,"20.6 µM [rising, single point]",
Cc1cccnc1NC(=O)CSc1nnc(Cc2ccccc2)o1,-24.7,"2.59 µM [falling, full curve]",
Cc1ccc(S(=O)(=O)NNC(=O)CCC(=O)Nc2ccc(C)cc2C)cc1,-77.2,"5.8 µM [falling, partial curve]","8.2 µM [falling, partial curve, poor fit]"
CCC(=O)Nc1cccc(C(=O)/C=C/c2cc(Br)ccc2OC)c1,-31.5,,
O=CNCCCc1nc2ccccc2n1Cc1ccccc1,-16.1,,
COc1ccc(NC(=O)c2c(C(F)(F)F)nn(C)c2SCc2ccccc2Cl)cc1,-2.88,"16.4 µM [falling, partial curve, poor fit]",
CCCCOC(=O)C(C#N)c1nc2ccccc2nc1N1CCN(Cc2ccc3c(c2)OCO3)CC1 (stereo not drawn),23.2,,"0.092 µM [rising, full curve, poor fit]"
Cc1ccc(CNC(=O)COc2cccc3c2OC(C)(C)C3)cc1,,"3.26 µM [falling, single point]",
COc1ccc2c(c1)S/C(=C\C(=O)c1ccncc1)N2C,-2.5,"29.1 µM [falling, partial curve, poor fit]",
CC(C)NC(=O)CSc1ncccc1-c1nc2ccccc2[nH]1,-28.2,"0.0517 µM [falling, full curve, poor fit]",
Cc1c(C(=O)Nc2ccccc2F)cnn1-c1ccccc1,,"0.58 µM [rising, single point]",
O=[N+]([O-])c1ccc(N2CCCCC2)c(-c2nn[nH]n2)c1,-47.2,,"29.1 µM [falling, single point]"
O=C(COC(=O)c1cccc2c1C(=O)c1ccccc1C2=O)NC1CCCCC1,-20,"20.6 µM [falling, single point]",
Cc1ccccc1S(=O)(=O)c1cc(C#N)c(=O)[nH]c1N,-7.87,,
Cc1cccc(NCC(=O)N/N=C/c2cccc(Br)c2)c1,-38,"29.1 µM [falling, single point]","14.6 µM [falling, single point]"
O=C(CSc1nnc(-c2ccccc2)o1)N1CCCCC1,35.2,"29.1 µM [rising, single point]",
CN(C)c1nc(OCCNC(=O)Nc2ccccc2)nc(N(C)C)n1,-12.5,"1.03 µM [rising, partial curve, poor fit]",

Structure (SMILES),cell number change [%],AC50 [1],AC50 [2]
CCOC(=O)C1=C(C)C(c2cccc(Oc3ccccc3)c2)NC(=S)N1 (stereo not drawn),10.1,"3.66 µM [rising, partial curve]",
COc1ccc(N=C2S/C(=C\c3cccs3)C(=O)N2CC(C)C)cc1,32.4,,"1.46 µM [rising, single point]"
CN(C1=C(NC(=O)c2ccc(Cl)cc2)C(=O)c2ccccc2C1=O)c1ccccc1,-70.6,"5.17 µM [falling, partial curve]","10.3 µM [falling, partial curve]"
COc1ccc2cc(C(=O)N3CCOCC3)sc(=O)c2c1OC,-1.14,"2.06 µM [rising, partial curve, poor fit]",
CCCNC(=O)C(Cc1cccc(C#N)c1)NC(=O)c1cccc([N+](=O)[O-])c1 (stereo not drawn),-43.9,,"29.1 µM [falling, single point]"
CCC1(c2ccccc2)NC(=O)N(CC(=O)Nc2ccccc2C(=O)NC2CCCC2)C1=O (stereo not drawn),,"29.1 µM [rising, single point]",
S=c1[nH]nc(-c2ccccc2)n1C1C=CCCC1 (stereo not drawn),-12.6,"29.1 µM [falling, single point]",
O=C(NCc1ccco1)C(c1ccccc1F)N(CC1CCCO1)C(=O)Cn1nnc2ccccc21 (stereo not drawn),31,"25.9 µM [rising, single point]","8.2 µM [rising, single point]"
c1ccc(Cn2nnc3c(NCc4ccc5c(c4)OCO5)nc(C4CC4)nc32)cc1,-14.5,"1.3 µM [rising, full curve]",
Cc1ccc(C(=O)N2CCN(c3ncccn3)CC2)c(C)c1,27.8,"16.4 µM [rising, single point]",
O=C(COC(=O)CNC(=O)c1sc2ccccc2c1Cl)Nc1cc(Cl)cc(Cl)c1,4.41,,
O=C(CSc1oc(-c2cccs2)nc1S(=O)(=O)c1ccc(F)cc1)NCC1CCCO1 (stereo not drawn),2.11,,
CCOc1ccccc1N=Cc1c(O)c2ccccc2oc1=O,6.93,"5.8 µM [rising, single point]",
CC(Sc1nnc(-c2cccnc2)o1)C(=O)NC1CCCCC1 (stereo not drawn),-8.94,"3.26 µM [rising, full curve, poor fit]",
Cn1c(=O)c(C(=O)COc2ccc(F)cc2Cl)c(N)n(Cc2ccccc2)c1=O,-136,"29.1 µM [falling, partial curve]","32.6 µM [falling, partial curve, poor fit]"
Cc1cccc(C)c1NC(=O)CNC(=O)CN1C(=O)NC2(CCc3ccccc32)C1=O (stereo not drawn),3.21,"2.31 µM [rising, partial curve]","6.51 µM [falling, single point]"
Cc1cc(SCC(=O)N2CCCC2)nc2ccccc12,-12.4,"0.259 µM [rising, full curve, poor fit]",
O=C(/C=C/c1ccccc1Cl)N(Cc1ccc(Cl)cc1)C1CCS(=O)(=O)C1 (stereo not drawn),-0.25,,
Cc1nnc(-c2cccc(Br)c2)c2cn(-c3ccc(Br)cc3)nc12,17.8,,

# 3 entries from above, arranged by count of non-hydrogen atoms, low to high:
Structure (SMILES),cell number change [%],AC50 [1],AC50 [2]
CCOc1ccccc1N=Cc1c(O)c2ccccc2oc1=O,6.93,"5.8 µM [rising, single point]",
c1ccc(Cn2nnc3c(NCc4ccc5c(c4)OCO5)nc(C4CC4)nc32)cc1,-14.5,"1.3 µM [rising, full curve]",
Cc1cccc(C)c1NC(=O)CNC(=O)CN1C(=O)NC2(CCc3ccccc32)C1=O (stereo not drawn),3.21,"2.31 µM [rising, partial curve]","6.51 µM [falling, single point]"
